Results on 5 molecules are retold here after patent US20160002325A1 (VACCINEX, published 2016).

Test [1] concerns the target T1, cynomolgus monkey CXCL13 (cynomolgus monkey).
T1 sequence: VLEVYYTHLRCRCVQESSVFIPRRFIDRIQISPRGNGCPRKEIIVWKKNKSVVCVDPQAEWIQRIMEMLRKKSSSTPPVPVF
Description: specificity ELISA, plate-coated recombinant chemokine.

Test [2] shares this target. Description: specificity ELISA, chemokine coated at 100 nM.
Test [3] deals with T2, human CXCL13 (human, UniProt O43927 23-109).
T2 construct: Recombinant protein bought from Peprotech (#300-47); In some assays native human CXCL13 from supernatant of IFN-gamma-stimulated THP-1 cells was used; this is said in the assay field; also called recombinant human CXCL13; rhuCXCL13
T2 sequence: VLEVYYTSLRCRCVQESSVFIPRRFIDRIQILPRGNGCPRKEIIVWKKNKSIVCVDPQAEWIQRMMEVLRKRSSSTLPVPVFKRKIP
Description: summary of epitope competition ELISAs.

Test [4] addresses T2, human CXCL13. Description: specificity ELISA, chemokine coated at 100 nM.
Test [5] has as its target T3, mouse CXCL13 (mouse, UniProt O55038 22-109).
T3 construct: Recombinant protein bought from Peprotech (#250-24); In some assays native mouse CXCL13 from organ extracts of TNF-alpha transgenic mice was used; this is said in the assay field; also called recombinant mouse CXCL13; rmuCXCL13
T3 sequence: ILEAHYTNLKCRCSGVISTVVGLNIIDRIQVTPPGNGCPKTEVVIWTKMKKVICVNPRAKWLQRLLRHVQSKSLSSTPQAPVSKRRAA
Description: specificity ELISA, chemokine coated at 100 nM.

Test [6] deals with T3, mouse CXCL13. Description: Epitope Competition ELISA; recombinant mouse CXCL13 captured with MAb 5378, detection with biotinylated MAb 5261.

Where a chain is given by its changes, count along the chain named. Results are given in words; binding and its absence hold for the method and conditions named. Some entries that bind do so weakly or less than the wild type.

B1: 3D2 (antibody, mouse IgG1, V domains shown)
VH: EVQLQESGPGILQPSQTLNLTCSFSGFSLSTFGMGVGWIRQPSGKGLEWLAHIWWDDDRRYNPALKSRLTISKETSKNQVFLKIANVDTADTATYYCTRIAGYYGSRDWFAYWGQGTTVTVSS
VL: DIVLTQSPASLAVSLGQRATISCRASESVDNSGISFMHWYQQKPGQPPKLLIFRASDLESGIPARFSGSGSRTDFTLTVNPVETDDVATYFCQQSNKDPWTFGGGTKLEIK
notes: Hybridoma-produced mouse IgG1; also called mouse anti-human CXCL13 antibody 3D2; H1609/L0293
In the case of B1, the binding entry in test [1] was “binds”.

B2: MAb 1476 (antibody, V domains shown)
VH: B1 VH
VL: B1 VL
notes: Chimeric IgG1: 3D2 variable domains (H1609/L0293) on human gamma 1 heavy chain constant and human kappa constant; also called chimeric 3D2
For the molecule B2, the binding result in test [2] is on record as “binds”.

B3: MAb 5261 (antibody, V domains shown)
VH: QVQLQESGPGLVKPSETLSLTCTVSGFSLSTFGMGVGWIRQPPGKGLEWIAHIWWDDDRRYNPALKSRVTISKDTSKNQFSLKLSSVTAADTAVYYCARIAGYYGSRDWFAYWGQGTTVTVSS
VL: DIQMTQSPSSLSASVGDRVTITCRASESVDNMGISFMHWYQQKPGKAPKLLIFRASDLESGVPSRFSGSGSGTDFTLTISSLQPEDFATYYCQQSNKDPWTFGQGTKLEIK
notes: Humanized
For B3, the binding result in test [2] is “binds”.

B4: MAb 5378 (antibody, V domains shown)
VH: B3 VH
VL: B3 VL
notes: also called H5188/L5153
Take B4: the binding entry (with human CXCL13 [3]; in test [2]; in the test with human CXCL13 [4]; in the test with mouse CXCL13 [5]; with mouse CXCL13 [6]) was “binds” in each case.

B5: MAb 5080 (antibody, human IgG1, V domains shown)
VH: B3 VH
VL: B3 VL with M32S, R65G, G72R
notes: also called H2177/L5055
In the case of B5, the binding entry in test [2] was “binds”.
